# In patent publication US20110207744A1, “Method for treating cognitive deficits” (H. Lundbeck A/S, priority 2008, published 2011):
# At least one compound was matched to its structure with a doubt left.
# Experiments:
# [1] = test system: sub-chronic PCP treated rats; assay: novel object recognition (NOR) test in sub-chronic PCP treated rats; assay type: in vivo, rat; settings: acute 2.5 mg/kg i.p.
# Experimental: The NOR test was performed as described in the above cited reference (Grayson 2007).
# Acquisition trial. […] Data are expressed as mean±s.e.m. (n=9-10 per group) and were analysed by ANOVA and post-hoc student's t-test.
# Retention trial. […] Data are expressed as mean±s.e.m. (n=9-10 per group) and were analysed by ANOVA and post-hoc student's t-test.
# Data are expressed as the mean±s.e.m. (n=9-10 per group) and were analysed using ANOVA followed by post-hoc Dunnett's t-test.
# Locomotor activity. […] Data are expressed as mean±s.e.m (n=9-10 per group) and were analysed by ANOVA and post-hoc Dunnett's t-test.
# [2] = test system: subchronic PCP treated rats; settings: given acutely; Rodefer et al. (2008); cited from earlier work
smiles,measurement,setting,value
"CN1CCN(C2=Nc3cc(Cl)ccc3Nc3ccccc32)CC1 [clozapine, reference compound]","time spent exploring the identical objects, acquisition phase",[1],no significant difference
same,"sub-chronic PCP-induced impairment, novel vs familiar object exploration, retention phase",[1]; p<0.05,significantly attenuated
same,reversing PCP-disrupted attentional performance,[2],ineffective
